# Results reported in PubChem BioAssay AID504834 (National Center for Advancing Translational Sciences (NCATS), 2011).
# Hit rate of the full screen: of about 320,000 compounds, about 22,000 (6.9%) were called active. Inconclusive results, whose numbers are uncertain, are shown with a selection of clear calls. The call rests on the fitted dose curve; in most records, active means well fitted inhibition curve with a large enough effect; inconclusive means small, poorly fitted or top-dose-only effect, or another doubt; inactive means no such curve, though single readings can be large or run the other way. Where the call is inconclusive, the potency comes from a doubtful curve fit.
# Assay: Primary qHTS for delayed death inhibitors of the malarial parasite plastid, 96 hour incubation
# Settings: P. falciparum luciferase reporter growth; series mostly up to 28.7 µM; activity change, negative = inhibition: at the top concentration
# Method in brief: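 Erythrocytes infected with luciferase-expressing P. falciparum were dispensed at 2% hematocrit and 0.05% parasitemia (final), then incubated with compounds 96 hours at 37 C in 5% CO2. Luminescence after detection reagent addition reported growth.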
# On the % scale 0 is the no-effect control and ±100 the full control effect; potency means the concentration at half of the fitted maximal effect.
Structure (SMILES),Potency,"activity change, negative = inhibition"
COc1ccc(-c2[nH]ncc2CN2CCC(OCc3ccccc3)CC2)c(F)c1,"inconclusive: 18.5 µM [inhibitor, single point]",
Cc1cccc2cc(COC(=O)c3cccs3)c(=O)[nH]c12,,inactive: 1.49%
CCOc1ccc(C2C3=C(CCCC3=O)Nc3nc(C(F)(F)F)nn32)cc1OC (centres undefined),"inconclusive: 18.5 µM [inhibitor, partial curve, poor fit]",
COc1ccc(OC(C)C(=O)Nc2ccccc2F)cc1 (centres undefined),"inconclusive: 10.4 µM [inhibitor, partial curve]",
O=C(NNC(=S)Nc1ccc(Br)cc1)c1ccccc1,"inconclusive: 18.5 µM [inhibitor, single point]",
Oc1ccc(Cl)cc1Cc1cc(Cl)ccc1O,"inconclusive: 11.7 µM [inhibitor, single point]",
COc1ccc(-c2csc3ncn(-c4ccccc4OC)c(=O)c23)cc1OC,"inconclusive: 18.5 µM [inhibitor, single point]",
CCOC(=O)c1ccccc1N/C=C1\CCCCC1=O,,inactive: 42.1%
CCOC(=O)[C@@H](N)CS,,inactive: -4.67%
COc1cc(CN2CCC(C(=O)N3CCN(c4ccccc4F)CC3)CC2)ccc1O,,inactive: -24.2%
CC(=O)c1ccc(NC(=O)COC(=O)c2ccccc2Nc2ccccc2)cc1,"inconclusive: 18.5 µM [inhibitor, single point]",
CCN(c1ccccc1)S(=O)(=O)c1c[nH]c2ccc([N+](=O)[O-])cc12,"inconclusive: 18.5 µM [inhibitor, single point]",
CCOc1ccccc1NC(=O)C(OC(=O)c1ccccc1O)c1ccccc1 (centres undefined),"inconclusive: 0.147 µM [inhibitor, full curve, poor fit]",
COc1ccccc1-n1c(SCC(=O)c2ccc(O)cc2O)nc2cc([N+](=O)[O-])ccc21,"inconclusive: 18.5 µM [inhibitor, single point]",
Cc1cccc(NC(=O)C2CCCN(S(=O)(=O)c3c(C)nn(C)c3C)C2)n1 (centres undefined),active: 11.7 µM,
COc1cc2nc(SCc3ccc(F)cc3)n(Cc3cccs3)c(=N)c2cc1OC,"inconclusive: 11.7 µM [inhibitor, single point]",
Cn1c(CCN2CCOCC2)nc2cc(NC(=O)COc3ccc(Cl)cc3)ccc21,"inconclusive: 11.7 µM [inhibitor, partial curve, poor fit]",
C=CCSc1ncc(C(=O)OCC)c(N)n1,,inactive: 57.1%
CCOc1ccc(NC(=O)c2cnc3scc(C)n3c2=O)cc1,"inconclusive: 18.5 µM [inhibitor, single point]",
COc1ccccc1NC(=O)c1sc2ncn(CC(=O)N3CCC(C)CC3)c(=O)c2c1C,"inconclusive: 13.1 µM [inhibitor, partial curve]",
COc1ccc(-c2cc3ccc(O)cc3oc2=O)cc1,,inactive: 188%
Cc1cc(C)nc(SC(C)CNS(=O)(=O)c2ccccc2)n1 (centres undefined),,inactive: -29.1%
CCN(CC(=O)Nc1cc(S(=O)(=O)N2CCCCC2)ccc1Cl)Cc1ccccc1,active: 10.4 µM,

# By substructure, the compounds so far with two or more sulfur atoms
Structure (SMILES),Potency,"activity change, negative = inhibition"
COc1cc2nc(SCc3ccc(F)cc3)n(Cc3cccs3)c(=N)c2cc1OC,"inconclusive: 11.7 µM [inhibitor, single point]",
Cc1cc(C)nc(SC(C)CNS(=O)(=O)c2ccccc2)n1 (centres undefined),,inactive: -29.1%

# (continued)

Structure (SMILES),Potency,"activity change, negative = inhibition"
Cc1noc(NC(=O)c2ccccc2)c1C#N,,inactive: 33.7%
CCCCC(=O)Nc1sc2c(c1-c1nc3ccccc3s1)CCN(C(C)=O)C2,"inconclusive: 20.8 µM [inhibitor, partial curve, poor fit]",
OCC1(CCc2ccccc2)CCN(Cc2ccccc2Cl)CC1,,inactive: 66.4%
O=C(Nc1ccc(N2CCN(C(=O)c3ccco3)CC2)cc1)c1ccc2c(c1)OCO2,"inconclusive: 18.5 µM [inhibitor, single point]",
NC(=S)N1OC[C@@H]2COc3ccc4ccccc4c3[C@@H]21,,inactive: 0.85%
CCOC(=O)COc1coc(CN2CCN(c3cccc(Cl)c3)CC2)cc1=O,"inconclusive: 10.4 µM [inhibitor, single point]",
CCC[C@@H]1C[C@@H](C(=O)NC(C(C)Cl)[C@H]2O[C@H](SC)[C@H](O)[C@@H](O)[C@H]2O)N(C)C1 (some centres undefined),active: 0.0033 µM,
COc1ccc2ccc(=O)oc2c1,,inactive: -1.96%
CN1C(=O)/C(=C\c2ccc(N3CCCCC3)o2)C(=O)NC1=S,,inactive: 18.6%
COC(=O)c1sccc1N/N=C/c1ccc(OC)c(OC)c1OC,,inactive: -16.1%
Cc1nc2ccccc2c(=O)n1-c1ccc(F)c(NC(=O)c2cccs2)c1,,inactive: 12%
COc1ccc(-n2nc3c(c2NC(=O)c2ccco2)CS(=O)(=O)C3)cc1,"inconclusive: 14.7 µM [inhibitor, partial curve, poor fit]",
CCN(CC)S(=O)(=O)c1ccc(O)c(NC(=O)c2ccc(N3CCOCC3)c([N+](=O)[O-])c2)c1,"inconclusive: 16.5 µM [inhibitor, single point]",
COc1cccc(CN(C)C(=O)c2cccc(S(=O)(=O)NCc3ccccc3)c2)c1OC,"inconclusive: 13.1 µM [inhibitor, single point]",
COc1cc(NC(=O)c2sc3ncn(CC(=O)N4CCCC(C)C4)c(=O)c3c2C)cc(OC)c1OC (centres undefined),"inconclusive: 18.5 µM [inhibitor, single point]",
Cc1ccc(C)c(OCCC(=O)OCC(=O)NCc2ccc(F)cc2)c1,,inactive: -22.4%
COC(=O)c1cccc(Cn2c(Cl)c(/C=N/Nc3ccccc3C)sc2=O)c1,"inconclusive: 14.7 µM [inhibitor, single point]",
COc1ccccc1N1CCN(C(=O)c2cc(C(=O)N3CCN(c4ccccc4OC)CC3)cc([N+](=O)[O-])c2)CC1,"inconclusive: 18.5 µM [inhibitor, single point]",
Cc1cc2oc(=O)cc(CN3CCC(C)CC3)c2cc1Cl,"inconclusive: 5.22 µM [inhibitor, partial curve, poor fit]",
COc1cc(OC)cc(-c2c(-c3cccs3)c3cc(-c4ccc(OC)cc4F)ccc3n2C)c1,active: 5.86 µM,
Cc1ccc(C2CC(=O)Nc3sc(C(N)=O)c(N)c32)cc1 (centres undefined),"inconclusive: 18.5 µM [inhibitor, single point]",
CS(=O)(=O)N(CC(=O)NCc1ccncc1)Cc1ccc(Cl)cc1,"inconclusive: 20.8 µM [inhibitor, single point]",
COc1ccc2c(c1)[C@H]1[C@H](CO2)[C@H](c2ccccc2)[C@]2(C)C(=O)N[C@@H](C)C(=O)N12,"inconclusive: 18.5 µM [inhibitor, single point]",

Structure (SMILES),Potency,"activity change, negative = inhibition"
Cc1ccccc1OCCOC(=O)c1ccc(S(=O)(=O)N2CCCC2)cc1,"inconclusive: 10.4 µM [inhibitor, single point]",
CCN(CC(=O)NCc1ccc(F)cc1)Cc1nc2ccccc2c(=O)[nH]1,"inconclusive: 10.4 µM [inhibitor, single point]",
COC(=O)c1cc2c(cc1Cl)SC(=NCCCN1CCOCC1)NS2(=O)=O,"inconclusive: 0.0828 µM [inhibitor, full curve, poor fit]",
CCOCC(=O)Nc1cc(C(=O)Nc2cccc(C)c2C)ccc1Cl,"inconclusive: 0.0657 µM [inhibitor, full curve, poor fit]",
CC(C)(C)c1ccc(/C=C/C(=O)c2ccc(NC3=NCCCS3)cc2)cc1,"inconclusive: 10.4 µM [inhibitor, single point]",
COc1ccc(S(=O)(=O)N2CCC(C(=O)Nc3cccc(Cl)c3)CC2)cc1OC,"inconclusive: 11.7 µM [inhibitor, single point]",
O=C(O)/C(=C\c1ccccc1Cl)c1ccc(S(=O)(=O)N2CCCCC2)s1,"inconclusive: 18.5 µM [inhibitor, single point]",
CCN(CC(=O)Nc1ccc(NC(C)=O)cc1)C(=O)c1c(-c2c(F)cccc2Cl)noc1C,"inconclusive: 18.5 µM [inhibitor, single point]",
CC(C)CCNC(=O)c1ccccc1SCC(=O)NC1CCCCCCC1,"inconclusive: 9.28 µM [inhibitor, single point]",
O=C(Cn1cnc([N+](=O)[O-])n1)NCCO,"inconclusive: 18.5 µM [inhibitor, single point]",
Cc1ccc(Cl)c(OCC(=O)Nc2ccccc2N2CCCCC2)c1,"inconclusive: 5.22 µM [inhibitor, partial curve, poor fit]",
CN(CC(=O)Nc1cccc([N+](=O)[O-])c1)S(=O)(=O)c1ccccc1,,inactive: 49.1%
CN(C(=O)c1coc(=O)c2ccccc12)c1ccccc1Cl,,inactive: -12.6%
COc1ccc(CC(=O)N/N=C/c2cccn2-c2ccc([N+](=O)[O-])cc2)cc1OC,"inconclusive: 11.7 µM [inhibitor, single point]",
CCOc1ccccc1N/C(=C(/C(Cl)=C(Cl)Cl)[N+](=O)[O-])n1cncn1,"inconclusive: 13.1 µM [inhibitor, single point]",
COc1ccc(Cl)cc1NC(=O)C1CC(=O)N(c2ccc(F)cc2)C1 (centres undefined),"inconclusive: 10.4 µM [inhibitor, single point]",
CC(C)(C)n1ncc2c(=O)n(CC(=O)c3ccccc3)cnc21,active: 2.08 µM,
O=C(COc1coc(CN2CCN(c3cccc(Cl)c3)CC2)cc1=O)NC1CCCC1,"inconclusive: 0.0329 µM [inhibitor, partial curve]",
Cn1c(-c2ccsc2)c(-c2cccs2)c2cc(-c3ccc4[nH]ccc4c3)ccc21,active: 5.86 µM,
O=C(O)CNC(=O)c1ccc(Sc2ccccc2)c([N+](=O)[O-])c1,,inactive: 6.45%
COc1ccc(Cc2nnc(NC(=O)c3ccc(OC)c(OC)c3)s2)cc1OC,,inactive: 21.4%
CCCCn1nc(C(=O)Nc2cc(C(F)(F)F)ccc2N2CCOCC2)ccc1=O,"inconclusive: 8.28 µM [inhibitor, partial curve, poor fit]",
COc1ccc(NC(=O)COc2coc(CN3CCc4ccccc4C3)cc2=O)cc1,active: 13.1 µM,

# No new results follow: an excerpt of the list.
Structure (SMILES),Potency,"activity change, negative = inhibition"
O=C(Cn1cnc([N+](=O)[O-])n1)NCCO,"inconclusive: 18.5 µM [inhibitor, single point]",
Cc1ccc(Cl)c(OCC(=O)Nc2ccccc2N2CCCCC2)c1,"inconclusive: 5.22 µM [inhibitor, partial curve, poor fit]",
CN(CC(=O)Nc1cccc([N+](=O)[O-])c1)S(=O)(=O)c1ccccc1,,inactive: 49.1%
